Source: PMC11194565
These are yes or no findings as the source states them, for the method shown. For some of these results: In cells and extracts the contact can be indirect. Some results given as binding are weak or reduced against the parent protein; the word gives no strength. Blank lines part the entries; values can stand above or below the substance they belong to.

Sequences of proteins named here, by UniProt entry; tags and fusion partners are left off. A change or cut given only in a name is not applied to a line headed by its entry. A line that says so, or that is headed by a name, gives the form on record, which may keep a tag or linker.
UniProt Q8N726: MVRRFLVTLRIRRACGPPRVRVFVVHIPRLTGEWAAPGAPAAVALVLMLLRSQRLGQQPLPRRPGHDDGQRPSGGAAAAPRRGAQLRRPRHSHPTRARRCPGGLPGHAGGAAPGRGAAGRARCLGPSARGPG
purified Flag-tagged point mutant ARF (substitution of Phe23 and Leu49 into Alanine; 2A) (Q8N726, form named): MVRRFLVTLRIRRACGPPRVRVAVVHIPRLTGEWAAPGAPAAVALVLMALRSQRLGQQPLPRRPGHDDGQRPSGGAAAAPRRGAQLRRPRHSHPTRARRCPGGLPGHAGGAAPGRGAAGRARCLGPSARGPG
UniProt Q9NRC8: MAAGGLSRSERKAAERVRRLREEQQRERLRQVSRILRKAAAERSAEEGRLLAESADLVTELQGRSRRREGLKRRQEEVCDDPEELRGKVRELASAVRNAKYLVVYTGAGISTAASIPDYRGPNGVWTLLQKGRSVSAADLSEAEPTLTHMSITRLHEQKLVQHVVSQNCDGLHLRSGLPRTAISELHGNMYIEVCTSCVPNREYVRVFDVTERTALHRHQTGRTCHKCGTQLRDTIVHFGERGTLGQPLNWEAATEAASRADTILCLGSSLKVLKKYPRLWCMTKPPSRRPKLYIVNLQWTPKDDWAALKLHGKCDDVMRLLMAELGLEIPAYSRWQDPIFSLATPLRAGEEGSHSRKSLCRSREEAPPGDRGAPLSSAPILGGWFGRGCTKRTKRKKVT
UniProt P06748: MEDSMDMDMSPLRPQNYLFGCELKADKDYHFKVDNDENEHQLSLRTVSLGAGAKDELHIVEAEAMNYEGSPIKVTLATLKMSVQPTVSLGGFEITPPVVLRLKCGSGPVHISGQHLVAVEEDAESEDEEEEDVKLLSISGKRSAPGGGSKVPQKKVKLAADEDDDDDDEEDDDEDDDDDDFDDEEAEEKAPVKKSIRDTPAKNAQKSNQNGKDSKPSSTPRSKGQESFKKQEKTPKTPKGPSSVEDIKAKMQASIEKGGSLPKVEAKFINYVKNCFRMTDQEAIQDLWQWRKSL

Tests used:
[1] = biological target: GST-tagged p14ARF (human) (UniProt Q8N726); assay: pull-down; GST-pull down of bacterial purified GST-tagged p14ARF and His-tagged SIRT7; both purified
[2] = biological target: p14ARF (endogenous, H1299) (human (endogenous in H1299)) (UniProt Q8N726); assay: co-IP; endogenous proteins in scrambled and SIRT7 KD H1299 cells; IP with anti-p14ARF antibody, blot with anti-p14 and SIRT7 antibodies; nonimmune IgG as negative control
V5-tagged p14ARF (human) = V5-tagged p14ARF (human) (UniProt Q8N726); assay: co-IP; stable scrambled and NPM KD H1299 cells transfected with V5-tagged p14ARF; IP with anti-V5 antibody, blot with anti-V5 and SIRT7 antibodies
[3] = biological target: Flag-tagged p14ARF (human) (UniProt Q8N726); assay: co-IP; 293T HEK cells transfected with YFP-tagged WT or HY mutant SIRT7 and Flag-tagged p14ARF; IP with anti-Flag antibody, blot with anti-Flag and anti-YFP; nonimmune IgG as negative control
[4] = biological target: purified Flag-tagged point mutant ARF (substitution of Phe23 and Leu49 into Alanine; 2A) (human) (UniProt Q8N726); assay: co-IP; purified Flag-tagged WT or 2A point mutant ARF and Flag-tagged NPM; IP with anti-ARF antibody, blot with anti-Flag antibody; both purified
[5] = biological target: purified Flag-tagged SIRT7 (UniProt Q9NRC8); assay: co-IP; purified Flag-tagged WT or 2A point mutant ARF and Flag-tagged SIRT7; IP with anti-SIRT7 antibody, blot with anti-Flag antibody; both purified

binding [1]: binds
Substance: His-tagged SIRT7 (from UniProt Q9NRC8 1-400) (enzyme)

binding [2]: binds
binding (V5-tagged p14ARF (human)): binds
Substance: SIRT7 (endogenous, H1299) (from UniProt Q9NRC8 1-400) (enzyme)

binding [3]: binds
Substance: YFP-tagged WT SIRT7 (from UniProt Q9NRC8 1-400) (enzyme)

binding [4]: binds
Substance: purified Flag-tagged NPM (from UniProt P06748 1-294)

binding [5]: binds
Substance: purified Flag-tagged point mutant ARF (substitution of Phe23 and Leu49 into Alanine; 2A) (from UniProt Q8N726 1-132)

binding [5]: binds
Substance: purified Flag-tagged ARF (WT) (from UniProt Q8N726 1-132)
